# Test results published in PubChem BioAssay AID493014 (National Center for Advancing Translational Sciences (NCATS), 2011).
# The list shows a part of the results. Further columns of the screen follow, without active or inactive calls. Most of these compounds were active or inconclusive in the main read-out, so they are no random draw. The note in brackets gives the kind of curve behind each potency; many fits are weak.
# Assay: qHTS Assay to Find Inhibitors of Chronic Active B-Cell Receptor Signaling
# Conditions: ABC-DLBCL IkBa-CBG/CBR reporter, luminescence ratio (green luciferase fused to IkBa over red control in TMD8 lymphoma cells), 4 h
# Procedure, shortened: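 Cell line TMD8 (human ABC DLBCL), stably expressing tet-inducible CBG68-IkBa fusion and CBR; IMDM/0.5% FBS; cpd up to 46 uM; dox induction, 4 h, 37C/5% CO2; dual luminescence; green/red ratio; MG132 control.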
# [1] = measured here: CBR red luminescence, cell number
# [2] = measured here: IkBa-CBG green luminescence
SMILES,AC50 [1],AC50 [2]
CC(=O)Nc1ccc(C(=O)N2CCN(C(=O)c3ccco3)CC2)cc1,"20.6 µM [falling, partial curve, poor fit]",
C[C@H](NC(=O)c1ccc(Cl)cc1)C(=O)NNC(=O)c1cccs1,"5.8 µM [rising, full curve, poor fit]",
Cc1ccnc(NC(=O)/C=C/c2ccccc2Cl)c1,"18.4 µM [falling, single point]",
COc1ccc2c(c1)O/C(=C\c1sccc1C)C2=O,"5.17 µM [rising, partial curve, poor fit]",
Cc1ccccc1CSc1nc2n(n1)C(c1cccs1)C1=C(CCCC1=O)N2 (stereo not drawn),"32.6 µM [falling, single point]",
O=S(=O)(c1ccc2c(c1)OCO2)N1CCN(c2nnnn2-c2ccccc2)CC1,"0.0891 µM [falling, full curve, poor fit]",
O=C(CN1CCC(C(=O)c2ccc(Cl)cc2)CC1)Nc1ccc2c(c1)OCCO2,"11.2 µM [falling, partial curve, poor fit]",
O=C(NCCC1=CCCCC1)c1ccc(Br)o1,"3.66 µM [rising, single point]",
COc1ccc(NS(=O)(=O)c2cc(NC(=O)Cn3cnc4c3c(=O)n(C)c(=O)n4C)ccc2C)cc1,"11.2 µM [falling, partial curve, poor fit]",
CS(=O)(=O)c1ccc(Cl)c(NC(=O)COC(=O)CCCN2C(=O)c3cccc4cccc(c34)C2=O)c1,"0.116 µM [rising, full curve, poor fit]",
O=[N+]([O-])c1c(NCCO)cc(Sc2nc3ccccc3s2)c2nonc12,"17.8 µM [falling, single point]","35.5 µM [rising, partial curve, poor fit]"
O=C(c1ccc(Cl)c([N+](=O)[O-])c1)N(Cc1ccc(F)cc1)C1CCS(=O)(=O)C1 (stereo not drawn),"22.4 µM [falling, single point]",
COc1ccc(COc2ccsc2C(=O)Nc2ccc(Cl)cc2)cc1,"0.731 µM [rising, full curve, poor fit]",
O=C(CN(Cc1ccccc1)S(=O)(=O)c1ccccc1)N/N=C/c1ccc2c(c1)OCO2,"22.4 µM [falling, single point]",
CCOc1ccc(C(=O)N/N=C/c2ccc(-c3ccc(S(=O)(=O)Nc4ncccn4)cc3)o2)cc1,"5.8 µM [falling, full curve, poor fit]",
Cc1nnc(NC(=O)C2CCN(S(=O)(=O)c3cc([N+](=O)[O-])ccc3Cl)CC2)o1,"2.06 µM [falling, partial curve, poor fit]",
Cc1cc(C(=O)N(C)CC2CCCN(CCc3ccc(F)cc3)C2)c(C)o1 (stereo not drawn),"22.4 µM [rising, single point]",
Cc1ccc(-c2ccc(C(=O)O)[nH]2)cc1,"0.447 µM [rising, full curve, poor fit]",
COc1ccc(/C(C)=N/NC(=O)c2nnn(-c3nonc3N)c2-c2ccccc2)cc1,"0.251 µM [rising, full curve, poor fit]",
COC(=O)CCC(=O)OC1(C)C(=O)C2=COC(c3ccc(OC)cc3)=CC2=C(Br)C1=O (stereo not drawn),"31.6 µM [rising, single point]",
CC(=O)Nc1ccc(NC(=O)c2nc(S(=O)(=O)Cc3cccc(C)c3)ncc2Cl)cc1,"5.01 µM [falling, full curve, poor fit]",

SMILES,AC50 [1],AC50 [2]
Oc1cc(OCc2ccccc2)ccc1-c1[nH]ncc1-c1ccccc1,"10 µM [rising, partial curve]",
Cc1cc(C(F)(F)F)nn1CC(=O)NNC(=S)Nc1ccc(F)cc1,"29.1 µM [falling, partial curve, poor fit]",
CCOc1ccc(C(=O)NC(=S)N(Cc2ccccc2)Cc2ccccc2)cc1,"4.47 µM [falling, partial curve]",
COc1ccc(/C=N/NC(=O)Cc2n[nH]c(=O)[nH]c2=O)cc1,"0.1 µM [falling, full curve, poor fit]",
CCOC(=O)c1nn(-c2ccccc2)c2nnc(Cc3ccc(Cl)cc3)c(=O)n12,"8.2 µM [rising, partial curve, poor fit]",
O=C(NC(=S)Nc1cccnc1)c1cc2ccccc2o1,"0.184 µM [rising, full curve, poor fit]",
Cc1csc(NC(=O)CCc2nc3ccccc3s2)n1,"25.9 µM [falling, partial curve, poor fit]",
O=C(NC(=S)NNC(=O)c1ccccc1O)c1ccc([N+](=O)[O-])cc1,"6.31 µM [falling, partial curve, poor fit]",
COc1cccc(NC(=O)Nc2ccc(C)c(Cl)c2)c1,"17.8 µM [falling, partial curve, poor fit]",
O=C(Nc1nc2ccccc2[nH]1)c1ccccc1,"2.06 µM [falling, full curve]",
O=C(c1cc(-c2ccc(O)cc2)on1)N1CCCc2ccccc21,"35.5 µM [falling, single point]",
COC(=O)c1ccccc1NC(=O)c1ccc2nccnc2c1,"22.4 µM [falling, single point]",
COc1ccccc1CCNC(=O)C1CCN(C(=O)/C=C/c2ccccc2)CC1,"10 µM [falling, single point]",
CC(C)c1ccccc1NC(=S)NCc1nc2ccccc2[nH]1,"10 µM [falling, partial curve]",
CSC1=NC(=O)/C(=C/c2ccc(SC)cc2)S1,"35.5 µM [falling, single point]",
COc1ccc(OC)c(NC(=O)c2cc(-c3cc(C)cc(C)c3O)n[nH]2)c1,"11.2 µM [falling, partial curve, poor fit]",
COc1ccccc1N1CCN(C(=O)c2ccc(S(=O)(=O)N3CCCCC3)cc2)CC1,"23.1 µM [rising, single point]",
Cc1cc(C)n(C(=O)c2ccc(S(=O)(=O)NCC3CCCO3)cc2)n1 (stereo not drawn),"23.1 µM [falling, single point]",
COc1ccccc1-c1cc(SC)c(C#N)c(=O)o1,"29.1 µM [falling, single point]",
CCCCn1c(N)c(N(CC(C)C)C(=O)C2CCN(S(=O)(=O)c3ccc(C)c(C)c3)CC2)c(=O)[nH]c1=O,"3.55 µM [falling, partial curve]",
CON(c1nc(Cl)nc(N(C)C)n1)S(=O)(=O)c1ccc(C)cc1,"15.8 µM [falling, partial curve, poor fit]",

# Individual results from the list.
# In AC50 [1], Cc1ccc(-c2ccc(C(=O)O)[nH]2)cc1 reads 0.447 µM [rising, full curve, poor fit]
# In AC50 [1], COc1ccc2c(c1)O/C(=C\c1sccc1C)C2=O reads 5.17 µM [rising, partial curve, poor fit]

# More structures follow.

SMILES,AC50 [1],AC50 [2]
COc1cc(NC(=O)c2cc3nc(C)cc(C)n3n2)c(OC)cc1Cl,"0.517 µM [rising, full curve, poor fit]",
O=C(Nc1cccc(F)c1)N1CCC(c2ccccc2)CC1,"12.6 µM [falling, partial curve, poor fit]",
CC(=O)Oc1ccc(C(=O)[C@H]2[C@H]3C(=O)N(c4ccc(C)cc4C)C(=O)[C@H]3[C@@H]3C=CC=NN32)cc1,"0.708 µM [rising, partial curve, poor fit]",
CC(=O)c1c(C)[nH]c(C(=O)OCc2cccc(Cl)c2)c1C,"7.08 µM [rising, full curve, poor fit]",
CC(C)NC(=O)/C(C#N)=C\c1ccc(N(C)C)o1,"2.82 µM [rising, partial curve, poor fit]",
COc1ccc(C(=O)/C=C/c2cc(C(=O)O)cc3c2OCOC3)c(O)c1,"1.12 µM [falling, single point]",
COC(=O)[C@@H](NC(=O)O[C@@H]1C(=O)c2cc(Br)ccc2O[C@H]1c1cccc(OC)c1)C(C)C,"1.84 µM [rising, partial curve]",
N/C(=N\OC(=O)Nc1ccc(Cl)c(Cl)c1)c1ncc(C(F)(F)F)cc1Cl,"0.651 µM [rising, partial curve, poor fit]",
CCN(CC)C(=O)c1sc2nc(-c3ccc(OC)cc3)cn2c1C,"8.91 µM [falling, partial curve, poor fit]",
COc1ccc(-c2csc3nc(-c4cccnc4)nc(N4CCC(C(N)=O)CC4)c23)cc1OC,,"18.4 µM [falling, partial curve, poor fit]"
Cc1ccc(NC(=O)CSCc2ccco2)cc1,"1.58 µM [rising, partial curve, poor fit]",
O=c1oc2cc(O)ccc2cc1-c1nc2c(s1)CCc1ccccc1-2,"0.291 µM [falling, full curve]",
COc1ccccc1NC(=O)COC(=O)CNC(=O)C1CCCCC1,"14.6 µM [rising, partial curve]",
O=C(CNCc1ccccc1)Nc1ccc(Cl)cc1,"12.6 µM [falling, single point]",
CC1CN(CC(=O)Nc2cccc(C(=O)Nc3cccc(C(F)(F)F)c3)c2)CC(C)O1 (stereo not drawn),"20.6 µM [falling, single point]",
Cc1cccn2c(=O)c3cc(C(=O)NCCN4CCOCC4)n(C)c3nc12,"7.08 µM [rising, partial curve, poor fit]",
O/N=C1\CCCc2ccc3ccccc3c21,,"20 µM [rising, partial curve, poor fit]"
O=c1oc(-c2ccccc2)nc2ccsc12,"4.11 µM [falling, full curve]",
O=C(COc1ncnc2ccccc12)Nc1ccc(S(=O)(=O)N2CCOCC2)cc1,"6.31 µM [rising, single point]",
COc1ccc(CCN2CC34C=CC(O3)C(C(=O)NCc3ccccc3)C4C2=O)cc1OC (stereo not drawn),"14.1 µM [rising, partial curve, poor fit]",

# 2 compounds picked at random from those above:
SMILES,AC50 [1],AC50 [2]
O=C(Nc1cccc(F)c1)N1CCC(c2ccccc2)CC1,"12.6 µM [falling, partial curve, poor fit]",
Oc1cc(OCc2ccccc2)ccc1-c1[nH]ncc1-c1ccccc1,"10 µM [rising, partial curve]",
